Reference: PMC12767472
Results are given in words; binding and its absence hold for the method and conditions named.

Protein sequences, listed by entry. Tags and fused reporters are not part of them. Lines headed by an entry give the natural chain unless they say otherwise; changes in a name come on top. Chains listed by the source or under a name are the forms on record and can include a tag or linker.
CD45 (RA, RB, and RC) on normal T and B cells (human (endogenous in primary human lymphocytes)) (P08575, form named): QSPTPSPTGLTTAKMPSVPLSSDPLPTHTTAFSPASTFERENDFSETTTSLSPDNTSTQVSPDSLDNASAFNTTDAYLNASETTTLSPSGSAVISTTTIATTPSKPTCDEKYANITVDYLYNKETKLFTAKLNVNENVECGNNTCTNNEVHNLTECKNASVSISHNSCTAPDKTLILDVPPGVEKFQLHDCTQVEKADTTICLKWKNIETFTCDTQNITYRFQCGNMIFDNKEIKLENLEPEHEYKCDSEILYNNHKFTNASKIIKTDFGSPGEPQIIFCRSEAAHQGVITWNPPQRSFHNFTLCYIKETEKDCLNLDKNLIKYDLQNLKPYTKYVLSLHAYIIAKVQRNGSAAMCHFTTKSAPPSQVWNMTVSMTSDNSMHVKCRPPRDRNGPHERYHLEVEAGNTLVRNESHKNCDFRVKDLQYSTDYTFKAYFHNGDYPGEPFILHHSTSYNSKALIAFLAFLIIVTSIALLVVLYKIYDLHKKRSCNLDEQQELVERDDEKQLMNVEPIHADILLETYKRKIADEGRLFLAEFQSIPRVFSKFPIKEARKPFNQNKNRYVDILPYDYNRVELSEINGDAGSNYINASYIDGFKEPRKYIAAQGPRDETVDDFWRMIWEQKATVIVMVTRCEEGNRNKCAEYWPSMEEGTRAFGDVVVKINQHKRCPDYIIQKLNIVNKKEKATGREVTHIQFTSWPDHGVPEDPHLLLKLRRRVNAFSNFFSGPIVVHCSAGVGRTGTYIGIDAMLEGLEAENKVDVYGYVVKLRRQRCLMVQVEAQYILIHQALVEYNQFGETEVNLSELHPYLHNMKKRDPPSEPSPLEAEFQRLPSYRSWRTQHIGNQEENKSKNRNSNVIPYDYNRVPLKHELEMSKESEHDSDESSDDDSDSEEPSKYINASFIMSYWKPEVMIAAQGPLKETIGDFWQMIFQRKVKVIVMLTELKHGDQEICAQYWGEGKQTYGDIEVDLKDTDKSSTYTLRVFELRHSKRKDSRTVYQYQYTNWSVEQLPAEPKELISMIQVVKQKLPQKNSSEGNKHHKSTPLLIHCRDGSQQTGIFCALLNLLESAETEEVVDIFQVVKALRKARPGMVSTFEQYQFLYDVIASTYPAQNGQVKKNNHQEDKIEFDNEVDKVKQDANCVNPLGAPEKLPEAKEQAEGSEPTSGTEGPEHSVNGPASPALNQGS

Target: CD45 (RA, RB, and RC) on normal T and B cells (human (endogenous in primary human lymphocytes)) (UniProt P08575)
Test: flow cytometry on cells; soluble CD301-6xHis incubated with primary human lymphocytes (CD4+ T cells, CD19+ B cells, resting/activated T cells); Tn-high Jurkat-TCRβ-/- cells as positive cells (Figures S2C, S2E); only the binder purified

- binding: no binding
Substance: CD301-6xHis (soluble human CD301) (from UniProt Q8IUN9-1) (receptor)
